Test results: US20150197562A1 (FRAUNHOFER GESELLSCHAFT ZUR FOERDERUNG DER ANGEWANDTEN …, published 2015)
No constants are given. Whether binding was seen depends on the method and setting.

Legend:
MSP4 (EGF domain) [1] = experiment: dot blot
MSP4 (EGF domain) [2] = experiment: dot blot on nitrocellulose, goat anti-human AP, NBT/BCIP

B1: recombinant huMAb-anti-MSP10.1 (antibody, V domains shown)
VH: EVQLVESGGDLVKPGGSLRLSCVVSGFRISTSAMSWVRQVPGKGLEWVSDISESGGSKDYADSVRGRFTISRDTSKNTLYLQMNSLGADDTALYYCAKSVGYFDTSGYYRWDYFDSWGQGTLVTVSS
VL: EIVLTQSPDILSLSPGERATLSCRASQALTAKYLAWYQQKPGQVPRLLIYGSSTRATGIPDRFRGSGSGTDFTLTISRLEPADSAVYYCQQYEDSPWTFGQGTKLEIK
notes: also called recombinant human anti MSP-10 antibody huMAb-anti-MSP10.1
binding (MSP4 (EGF domain) [1]): no binding
binding (MSP4 (EGF domain) [2]): no binding (tested: 100 ng antigen per dot)

B2: recombinant huMAb-anti-MSP10.2 (antibody, V domains shown)
VH: B1 VH
VL: EIVLTQSPDTLSLSPGETATLSCRASQTVRRNSLAWYQQKPGQAPRLLIYGASDRATGIPDRFSGSGFGTDFTLTVSGLEPEDFAVYYCQQYGTSPRTFGQGTKLEIK
notes: Same heavy chain as huMAb-anti-MSP10.1 with a different kappa light chain; Cloned and expressed like huMAb-anti-MSP10.1 (IgG1m17,1, kappa; N. benthamiana)
binding (MSP4 (EGF domain) [1]): no binding
binding (MSP4 (EGF domain) [2]): no binding (tested: 100 ng antigen per dot)
